33 targets from the supplement of paper PMC12819154, “High-throughput peptide-centric local stability assay extends protein–ligand identification to membrane proteins, tissues and bacteria” (Nature Structural & Molecular Biology, 2025) can be followed below.

Sequences of proteins named here, by UniProt entry; tags and fusion partners are left off. A change or cut given only in a name is not applied to a line headed by its entry.
UniProt P23878: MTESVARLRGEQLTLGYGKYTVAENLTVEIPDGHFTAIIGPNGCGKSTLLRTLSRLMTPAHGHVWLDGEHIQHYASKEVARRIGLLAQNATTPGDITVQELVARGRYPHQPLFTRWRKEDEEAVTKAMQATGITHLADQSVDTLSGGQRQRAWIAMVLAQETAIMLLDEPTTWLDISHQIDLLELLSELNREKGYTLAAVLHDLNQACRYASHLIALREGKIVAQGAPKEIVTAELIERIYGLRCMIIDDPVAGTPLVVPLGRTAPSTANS
UniProt P15977: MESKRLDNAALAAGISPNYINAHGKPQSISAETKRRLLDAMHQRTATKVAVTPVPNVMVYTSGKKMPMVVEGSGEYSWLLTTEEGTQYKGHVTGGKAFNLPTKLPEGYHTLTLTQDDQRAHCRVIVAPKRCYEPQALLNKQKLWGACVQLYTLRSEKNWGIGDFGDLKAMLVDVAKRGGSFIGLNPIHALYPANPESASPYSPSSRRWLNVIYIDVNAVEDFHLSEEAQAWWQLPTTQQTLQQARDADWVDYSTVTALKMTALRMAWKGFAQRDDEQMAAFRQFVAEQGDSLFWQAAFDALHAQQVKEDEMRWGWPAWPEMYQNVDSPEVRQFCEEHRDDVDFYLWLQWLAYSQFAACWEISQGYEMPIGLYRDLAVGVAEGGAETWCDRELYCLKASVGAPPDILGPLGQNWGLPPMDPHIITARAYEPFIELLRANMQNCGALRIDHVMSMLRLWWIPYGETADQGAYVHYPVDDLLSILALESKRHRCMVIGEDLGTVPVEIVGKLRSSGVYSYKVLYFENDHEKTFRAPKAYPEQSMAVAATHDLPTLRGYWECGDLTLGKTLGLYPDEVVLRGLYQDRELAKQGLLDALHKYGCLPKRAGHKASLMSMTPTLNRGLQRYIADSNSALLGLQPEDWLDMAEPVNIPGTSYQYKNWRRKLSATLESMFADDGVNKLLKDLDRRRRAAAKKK
UniProt P15254: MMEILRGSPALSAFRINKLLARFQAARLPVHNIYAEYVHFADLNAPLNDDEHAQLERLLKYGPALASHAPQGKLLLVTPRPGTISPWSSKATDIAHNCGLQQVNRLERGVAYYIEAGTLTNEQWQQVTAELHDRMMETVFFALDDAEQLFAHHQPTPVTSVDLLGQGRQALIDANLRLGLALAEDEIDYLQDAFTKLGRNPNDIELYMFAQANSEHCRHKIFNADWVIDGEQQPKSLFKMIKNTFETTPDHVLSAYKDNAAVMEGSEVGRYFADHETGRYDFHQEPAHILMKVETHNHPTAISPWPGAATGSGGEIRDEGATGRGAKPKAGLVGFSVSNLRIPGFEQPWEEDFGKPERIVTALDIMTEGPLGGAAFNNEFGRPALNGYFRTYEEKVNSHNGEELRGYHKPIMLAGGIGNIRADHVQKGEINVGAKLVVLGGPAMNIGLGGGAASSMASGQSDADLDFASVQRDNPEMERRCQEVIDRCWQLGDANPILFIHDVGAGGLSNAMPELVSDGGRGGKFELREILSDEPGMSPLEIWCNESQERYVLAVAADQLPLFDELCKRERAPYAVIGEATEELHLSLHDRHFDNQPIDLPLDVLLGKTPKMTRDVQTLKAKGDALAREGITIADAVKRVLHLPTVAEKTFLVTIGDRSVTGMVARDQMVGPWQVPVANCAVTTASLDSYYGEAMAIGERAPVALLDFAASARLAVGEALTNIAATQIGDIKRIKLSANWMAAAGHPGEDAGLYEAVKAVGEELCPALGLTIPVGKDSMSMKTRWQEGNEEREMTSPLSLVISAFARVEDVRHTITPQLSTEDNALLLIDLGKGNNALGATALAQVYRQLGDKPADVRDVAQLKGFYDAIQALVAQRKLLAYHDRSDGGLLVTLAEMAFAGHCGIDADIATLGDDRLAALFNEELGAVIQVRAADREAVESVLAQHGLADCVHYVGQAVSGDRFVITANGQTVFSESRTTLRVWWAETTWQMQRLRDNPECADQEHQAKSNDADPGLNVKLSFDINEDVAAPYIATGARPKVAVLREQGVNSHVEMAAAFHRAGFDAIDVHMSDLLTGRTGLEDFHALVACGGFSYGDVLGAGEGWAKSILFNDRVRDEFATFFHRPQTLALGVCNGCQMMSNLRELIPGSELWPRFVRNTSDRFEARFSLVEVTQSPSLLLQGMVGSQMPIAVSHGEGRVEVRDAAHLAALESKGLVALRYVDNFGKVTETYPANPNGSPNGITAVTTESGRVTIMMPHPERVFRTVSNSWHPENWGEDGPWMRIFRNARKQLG
UniProt P0DN74: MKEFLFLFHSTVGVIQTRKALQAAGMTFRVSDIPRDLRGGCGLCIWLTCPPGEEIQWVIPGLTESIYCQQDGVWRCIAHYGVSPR
UniProt P13458: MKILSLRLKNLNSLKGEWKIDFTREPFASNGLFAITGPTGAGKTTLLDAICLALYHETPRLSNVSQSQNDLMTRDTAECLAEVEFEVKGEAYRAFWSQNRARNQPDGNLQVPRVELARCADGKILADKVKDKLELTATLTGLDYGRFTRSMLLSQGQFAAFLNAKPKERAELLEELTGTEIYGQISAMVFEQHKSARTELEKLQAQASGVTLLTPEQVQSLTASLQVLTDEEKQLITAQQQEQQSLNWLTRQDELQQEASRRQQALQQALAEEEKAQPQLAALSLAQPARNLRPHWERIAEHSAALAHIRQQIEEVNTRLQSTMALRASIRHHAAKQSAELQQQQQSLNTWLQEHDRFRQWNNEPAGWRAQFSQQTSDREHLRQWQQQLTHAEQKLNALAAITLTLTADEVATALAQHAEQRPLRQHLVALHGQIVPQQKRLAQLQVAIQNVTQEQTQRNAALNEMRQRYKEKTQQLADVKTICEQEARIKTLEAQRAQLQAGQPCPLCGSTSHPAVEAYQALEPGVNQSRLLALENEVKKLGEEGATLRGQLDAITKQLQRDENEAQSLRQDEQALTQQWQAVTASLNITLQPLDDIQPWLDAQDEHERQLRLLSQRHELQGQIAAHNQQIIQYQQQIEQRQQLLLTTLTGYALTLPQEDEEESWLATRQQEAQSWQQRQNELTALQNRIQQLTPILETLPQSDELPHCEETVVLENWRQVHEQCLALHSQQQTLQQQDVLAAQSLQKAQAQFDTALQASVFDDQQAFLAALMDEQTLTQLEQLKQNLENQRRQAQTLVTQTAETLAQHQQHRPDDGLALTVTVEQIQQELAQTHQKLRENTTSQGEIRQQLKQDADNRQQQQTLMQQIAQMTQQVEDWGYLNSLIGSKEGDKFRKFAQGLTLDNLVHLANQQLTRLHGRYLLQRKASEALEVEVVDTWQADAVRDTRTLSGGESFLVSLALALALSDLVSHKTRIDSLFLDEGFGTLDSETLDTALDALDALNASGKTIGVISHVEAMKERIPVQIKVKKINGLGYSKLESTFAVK
UniProt P16916: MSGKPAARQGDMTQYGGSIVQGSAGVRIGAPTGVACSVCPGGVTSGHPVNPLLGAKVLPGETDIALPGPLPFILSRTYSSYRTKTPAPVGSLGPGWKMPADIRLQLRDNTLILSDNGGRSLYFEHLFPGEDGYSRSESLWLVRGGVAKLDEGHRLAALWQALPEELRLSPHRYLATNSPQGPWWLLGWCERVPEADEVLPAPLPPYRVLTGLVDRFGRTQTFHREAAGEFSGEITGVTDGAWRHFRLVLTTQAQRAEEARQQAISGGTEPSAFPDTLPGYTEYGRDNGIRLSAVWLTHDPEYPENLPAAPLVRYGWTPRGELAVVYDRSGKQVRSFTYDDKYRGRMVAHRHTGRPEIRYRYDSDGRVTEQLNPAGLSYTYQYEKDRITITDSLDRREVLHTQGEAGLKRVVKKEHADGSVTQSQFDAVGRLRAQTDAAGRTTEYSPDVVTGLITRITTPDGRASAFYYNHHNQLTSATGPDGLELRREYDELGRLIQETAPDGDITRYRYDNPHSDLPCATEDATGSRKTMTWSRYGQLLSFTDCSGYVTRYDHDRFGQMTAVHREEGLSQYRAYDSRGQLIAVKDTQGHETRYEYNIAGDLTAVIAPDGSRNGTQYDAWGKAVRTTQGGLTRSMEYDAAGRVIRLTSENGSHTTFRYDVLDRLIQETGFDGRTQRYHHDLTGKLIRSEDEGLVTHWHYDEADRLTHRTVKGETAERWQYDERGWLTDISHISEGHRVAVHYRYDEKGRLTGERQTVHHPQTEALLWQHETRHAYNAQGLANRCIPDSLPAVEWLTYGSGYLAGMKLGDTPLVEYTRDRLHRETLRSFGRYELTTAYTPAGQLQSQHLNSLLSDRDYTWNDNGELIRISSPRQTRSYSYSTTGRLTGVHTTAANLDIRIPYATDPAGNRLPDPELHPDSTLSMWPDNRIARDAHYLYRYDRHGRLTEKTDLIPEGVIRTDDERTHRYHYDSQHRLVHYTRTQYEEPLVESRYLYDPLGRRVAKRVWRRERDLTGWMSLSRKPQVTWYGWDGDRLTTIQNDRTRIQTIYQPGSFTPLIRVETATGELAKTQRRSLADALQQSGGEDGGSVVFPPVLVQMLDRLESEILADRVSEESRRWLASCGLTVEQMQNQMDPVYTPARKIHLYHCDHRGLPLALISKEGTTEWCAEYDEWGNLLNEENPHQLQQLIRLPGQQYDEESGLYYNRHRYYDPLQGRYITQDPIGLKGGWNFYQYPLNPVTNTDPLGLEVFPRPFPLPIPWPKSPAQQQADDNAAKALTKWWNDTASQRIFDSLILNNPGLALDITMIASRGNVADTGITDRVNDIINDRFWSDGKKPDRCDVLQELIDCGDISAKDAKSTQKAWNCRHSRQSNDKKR
UniProt P23837: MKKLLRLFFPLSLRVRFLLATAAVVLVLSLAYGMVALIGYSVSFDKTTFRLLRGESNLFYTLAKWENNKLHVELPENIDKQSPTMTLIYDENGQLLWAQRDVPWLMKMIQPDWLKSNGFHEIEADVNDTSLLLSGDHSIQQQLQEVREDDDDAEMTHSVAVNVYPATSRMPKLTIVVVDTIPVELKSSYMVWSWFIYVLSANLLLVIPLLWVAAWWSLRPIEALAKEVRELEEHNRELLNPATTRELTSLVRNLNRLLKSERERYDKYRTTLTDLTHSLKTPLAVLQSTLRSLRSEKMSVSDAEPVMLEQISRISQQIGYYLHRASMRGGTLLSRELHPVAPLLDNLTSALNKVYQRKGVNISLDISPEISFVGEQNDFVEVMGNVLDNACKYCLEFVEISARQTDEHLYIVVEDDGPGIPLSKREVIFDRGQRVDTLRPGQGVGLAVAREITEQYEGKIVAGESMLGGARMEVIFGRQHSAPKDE
UniProt P0C0L2: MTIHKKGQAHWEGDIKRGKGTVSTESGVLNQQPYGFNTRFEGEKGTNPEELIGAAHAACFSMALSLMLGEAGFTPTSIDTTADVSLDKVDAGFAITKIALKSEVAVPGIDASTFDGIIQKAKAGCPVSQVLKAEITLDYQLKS
UniProt P15033: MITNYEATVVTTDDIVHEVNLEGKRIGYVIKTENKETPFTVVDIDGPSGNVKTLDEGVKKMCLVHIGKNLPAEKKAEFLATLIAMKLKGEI
UniProt P21169, whole entry: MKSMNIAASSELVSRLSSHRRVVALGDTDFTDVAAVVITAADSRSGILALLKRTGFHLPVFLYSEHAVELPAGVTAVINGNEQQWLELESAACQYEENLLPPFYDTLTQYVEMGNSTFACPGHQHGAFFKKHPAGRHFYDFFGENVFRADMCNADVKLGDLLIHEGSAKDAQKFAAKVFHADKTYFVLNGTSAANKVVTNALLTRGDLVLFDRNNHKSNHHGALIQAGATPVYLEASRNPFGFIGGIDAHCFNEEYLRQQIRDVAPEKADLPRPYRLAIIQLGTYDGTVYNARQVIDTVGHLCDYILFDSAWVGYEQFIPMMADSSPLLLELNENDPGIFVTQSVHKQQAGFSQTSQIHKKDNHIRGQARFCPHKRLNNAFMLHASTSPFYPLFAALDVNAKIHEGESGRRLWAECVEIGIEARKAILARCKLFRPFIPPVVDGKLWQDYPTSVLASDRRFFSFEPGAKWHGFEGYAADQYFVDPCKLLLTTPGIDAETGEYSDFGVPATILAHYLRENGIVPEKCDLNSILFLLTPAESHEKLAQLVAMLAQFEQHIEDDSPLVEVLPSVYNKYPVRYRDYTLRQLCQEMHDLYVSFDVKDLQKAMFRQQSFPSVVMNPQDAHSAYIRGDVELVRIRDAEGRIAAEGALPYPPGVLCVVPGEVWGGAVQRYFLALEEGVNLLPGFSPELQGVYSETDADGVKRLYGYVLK
UniProt P21338: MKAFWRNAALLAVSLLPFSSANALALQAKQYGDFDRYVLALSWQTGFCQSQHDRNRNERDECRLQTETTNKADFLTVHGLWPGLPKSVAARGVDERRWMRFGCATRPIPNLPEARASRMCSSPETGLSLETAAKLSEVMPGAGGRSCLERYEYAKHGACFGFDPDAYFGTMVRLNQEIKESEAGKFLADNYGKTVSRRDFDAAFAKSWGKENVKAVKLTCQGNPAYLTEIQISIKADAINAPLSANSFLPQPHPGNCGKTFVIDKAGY

The other results are listed elsewhere or left out. Most entries show no effect beyond the scatter of the controls.

Compound in the test: CC1(C)S[C@@H]2[C@H](NC(=O)[C@H](N)c3ccccc3)C(=O)N2[C@H]1C(=O)O [ampicillin]
Nature of the test: log2 fold change of tryptic peptide abundance, ligand vs vehicle (limited proteolysis) (log2 ratio); higher = more trypsin-susceptible (destabilized). The conditions noted are these: ligand concentration: 10 uM; sample: E. coli crude lysate.
Consider “UniProt P10902 (peptide sequence: AVVLATGGASK, peptide start residue: 199)”, for which the log2 fold change was -0.161. Regarding “UniProt P17411 (peptide sequence: QLFELYKNPELK, peptide start residue: 292)”, the log2 fold change is 0.19.

For “UniProt P23878 (peptide sequence: WRKEDEEAVTK, peptide start residue: 116)”, the log2 fold change is 0.594. In the case of “UniProt P11290 (peptide sequence: DVIVKNNIK, peptide start residue: 174)”, the log2 fold change is -0.113. Regarding “UniProt P15977 (peptide sequence: RKLSATLESMFADDGVNK, peptide start residue: 661)”, the log2 fold change was 1.07. “UniProt P15640 (peptide sequence: VIEFNCR, peptide start residue: 284)”: the log2 fold change is -0.338. Consider “UniProt P19934 (peptide sequence: KMKEQQAAEELR, peptide start residue: 82)”, for which the log2 fold change is -0.549. The value for “UniProt P0CF79 (peptide sequence: HNLRGSMSAK, peptide start residue: 212)” was 0.448; that for “UniProt P15254 (peptide sequence: DNPEMERR, peptide start residue: 473)” was -0.699; that for “UniProt P0DN74 (peptide sequence: ALQAAGMTFR, peptide start residue: 20)” was 0.0681. Regarding “UniProt P19318 (peptide sequence: FNLFNSSR, peptide start residue: 491)”, the log2 fold change was -0.327. For “UniProt P13458 (peptide sequence: ARNQPDGNLQVPR, peptide start residue: 101)”, the log2 fold change is -0.421. For “UniProt P21599 (peptide sequence: LGGGLSAEALTEKDK, peptide start residue: 165)”, the log2 fold change stood at 0.5. As for “UniProt P16916 (peptide sequence: GELAVVYDR, peptide start residue: 320)”, the log2 fold change was found to be 0.133. As to “UniProt P21179 (peptide sequence: RGGFESYQER, peptide start residue: 479)”, the log2 fold change was found to be 0.291. “UniProt P21514 (peptide sequence: ECLNLVNKLGNDKIK, peptide start residue: 214)”: the log2 fold change stood at 0.388. On to “UniProt P23837 (peptide sequence: QHSAPKDE, peptide start residue: 479)”, for which the log2 fold change is 0.26. Consider “UniProt P13035 (peptide sequence: ENGLWIVEAEDIDTGKK, peptide start residue: 178)”, for which the log2 fold change worked out at 0.899.

Turning to “UniProt P21507 (peptide sequence: MLDMGFAQDIEHIAGETR, peptide start residue: 162)”, the log2 fold change was 0.162.

With “UniProt P15070 (peptide sequence: ITDIITPSER, peptide start residue: 122)”, the log2 fold change was -0.031. Take “UniProt P19642 (peptide sequence: DMSLVNVQALKDNR, peptide start residue: 481)”: the log2 fold change worked out at 0.204. “UniProt P0CG19 (peptide sequence: HAEGSVLVEFGDTK, peptide start residue: 23)”: the log2 fold change was -0.201. Consider “UniProt P0C0L2 (peptide sequence: GQAHWEGDIK, peptide start residue: 7)”, for which the log2 fold change was -0.464. With “UniProt P0DP90 (peptide sequence: LNTFAPHASVIHMDIDPAEMNK, peptide start residue: 281)” the figure was 0.33; with “UniProt P16676 (peptide sequence: IIAGLEHQTSGHIR, peptide start residue: 47)”, 0.311. With “UniProt P18392 (peptide sequence: FTAERAGK, peptide start residue: 29)” the figure was -0.11. Take “UniProt P10151 (peptide sequence: AFQLFGSVR, peptide start residue: 82)”: the log2 fold change was -0.742. The value for “UniProt P15033 (peptide sequence: MCLVHIGK, peptide start residue: 61)” was -0.221; that for “UniProt P21169 (peptide sequence: DVAPEKADLPRPYR, peptide start residue: 263)” was -0.502; that for “UniProt P16525 (peptide sequence: TTFEHIVTVESELPTAAR, peptide start residue: 122)” was 0.186. With “UniProt P23874 (peptide sequence: MIPAALDNVK, peptide start residue: 398)” the figure was 0.262.

Regarding “UniProt P21338 (peptide sequence: LSEVMPGAGGR, peptide start residue: 135)”, the log2 fold change worked out at 0.261. Take “MurF (peptide sequence: KLTPGCLFVALK, peptide start residue: 33) (UniProt P11880)”: the log2 fold change is -1.22.
